Data taken from ChEMBL document CHEMBL3988442, “University of Dundee, Small-Polar-MMV Screening Library” (2021).

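Viability assay of Plasmodium falciparum sporozoites; the read-out is not stated. The concentration is filed as 10 mM, unlikely as a test dose, so the dose is not known. Higher reads as lower viability (inferred: compounds with an IC50 in retests scored well above the rest). Strong results were mostly tested again. Of about 34,000 compounds tested this way, about 280 (0.84%) reached 50% or more in at least one test.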

Values are the deposited “Percent Effect”, in %. The record does not define 0% and 100%; most values in the screen are far below 50% and negative numbers occur (in some assays of this library far below -100). The compounds are a random part of those screened.

structure	Percent Effect
Cc1nccc(CN2CCC(c3nnsc3S(C)(=O)=O)CC2)n1	-13.86
CC(C)c1ccc(OCCC(=O)N2CCC(C(N)=O)CC2)cc1	-8.573
CSCC(=O)N1CCOC(c2nc(C(C)(C)C)n[nH]2)C1 (stereo not given)	-20.6
CCCC(=O)Nc1ccc(CC(=O)N(CC)CC2CCCCO2)cc1 (stereo not given)	-8.434
[H][C@@]12C[C@H](C(=O)NCc3ccccc3)[C@@]([H])(CN(S(=O)(=O)C3CC3)C1)O2	-3.691
O=c1nc(SCc2cccnc2)c2c(n1CCO)CCC2	-14.76
COc1ccc2c(c1)OC1(CCN(Cc3ccccc3C)CC1)CC2=O	-23.19
OC(CN1CCC(CNCc2ccccn2)CC1)c1ccccc1 (stereo not given)	1.75
Cc1cc(C)n(CC2CCCN2C(=O)CCCc2ccccn2)n1 (stereo not given)	-3.462
Clc1ccc(CN2CCCC(Cn3cncn3)C2)c2ncccc12 (stereo not given)	1.309
NC(=O)N1CCC2(CC1)CC(=O)N(CC1CCCO1)c1ccccc12 (stereo not given)	6.567
CN(C)S(=O)(=O)N1CCC(C)(c2ncc(C(N)=O)s2)CC1	3.309

Once more, the final 2:

NC(=O)N1CCC2(CC1)CC(=O)N(CC1CCCO1)c1ccccc12 (stereo not given) read 6.567%.
CN(C)S(=O)(=O)N1CCC(C)(c2ncc(C(N)=O)s2)CC1 read 3.309%.